Data published in US20240226067A9, “ANTI-FIBROTIC THERAPIES” (THE JOHNS HOPKINS UNIVERSITY, priority 2021, published 2024).

Test system: CCO18CD colon fibroblasts stimulated with TGF-β
Assay: High throughput microscopy-based anti-fibrotic drug screen (α-SMA and collagen 1 expression)
Type: cell-based
Description: FIG. 1 is images of cells from high throughput microscopy-based analysis of an FDA-approved drug library for potential anti-fibrotic properties.
FIGS. 3A-3C are images of cells from high throughput microscopy-based analysis of potential drugs for anti-fibrotic properties.

Clc1ccc(CSC(Cn2ccnc2)c2ccc(Cl)cc2Cl)cc1 (centres unmarked) [sulconazole, 1-[2-[(4-chlorophenyl)methylsulfanyl]-2-(2,4-dichlorophenyl)ethyl]imidazole]
fold lower effective concentration compared to pirfenidone (10 μM versus 4 mM): 400 fold | concentration causing reduction in α-SMA and collagen production (TGF-β stimulated colon fibroblasts, effect similar to pirfenidone): 10 µM
